Data source: PubChem BioAssay AID1259254 (NCATS, 2017)

- Screen: 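Genome-wide screen for genes that prevent DNA re-replication in cancer cells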 (primary screen)
- System: human HCT116 colorectal cancer cells
- Reagents: single siRNA against human genes
- Time to read-out: 3 days
- Measured: 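Nuclei stained with Hoechst and imaged; cell-cycle phase assigned by DNA content; G2 share scaled per plate, non-targeting siRNA 0%, GMNN siRNA 100%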
- Reading the numbers: G2 robust z-score and G2 cells, % of GMNN control: higher = more G2 cells, more excess DNA replication; raw share of cells in G2: higher = larger share of cells with G2 DNA content
- Rule for the call: 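Active siRNAs have a G2 robust z of 5 or more median absolute deviations over the median, which in these data means about 38% or higher of GMNN control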
Here is one part, drawn at random, of about 59,000 reagents tested. About 1,550 of all reagents (2.6%) count as active. 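G2 share is only a proxy for re-replication; each gene was hit by three separate siRNAs, and active genes were retested.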 Raw values are not corrected between plates. The numbers tell different reagents against one gene apart. Not stated in the record: the amount of reagent.

gene | siRNA no. | G2 robust z-score | G2 cells, % of GMNN control | raw share of cells in G2 (%) | call
FAM13C | 1 | 2.29 | 19.1 | 10.5 | inactive
FAM13C | 2 | 0.339 | 5.35 | 4.96 | inactive
FAM13C | 3 | 1.86 | 16 | 8.31 | inactive
CD300LD-AS1 | 1 | -0.901 | -3.37 | 2.7 | inactive
CD300LD-AS1 | 2 | 1.09 | 10.6 | 6.19 | inactive
CD300LD-AS1 | 3 | -0.664 | -1.71 | 2.47 | inactive
CXCR3 | 1 | -0.329 | 0.65 | 6.07 | inactive
CXCR3 | 2 | 1.71 | 15 | 9.76 | inactive
CXCR3 | 3 | 1.79 | 15.6 | 8.04 | inactive
RPL7P56 | 1 | 4.32 | 33.4 | 16.7 | inactive
RPL7P56 | 2 | -0.497 | -0.533 | 3.14 | inactive
RPL7P56 | 3 | 6.42 | 48.1 | 21.8 | active
RAB3IP | 1 | 6.26 | 47 | 25.1 | active
RAB3IP | 2 | -1.26 | -5.91 | 2.93 | inactive
RAB3IP | 3 | 0.53 | 6.7 | 7.01 | inactive
ZNF708 | 1 | -1.13 | -4.97 | 1.87 | inactive
ZNF708 | 2 | -0.192 | 1.62 | 6.71 | inactive
ZNF708 | 3 | -0.227 | 1.37 | 3.91 | inactive
ANK2 | 1 | -0.375 | 0.326 | 4.11 | inactive
ANK2 | 2 | -1.1 | -4.8 | 3.36 | inactive
ANK2 | 3 | 1.15 | 11 | 8.47 | inactive
NDUFV2 | 1 | 1.59 | 14.1 | 11.1 | inactive
NDUFV2 | 2 | -1.16 | -5.18 | 3.36 | inactive
NDUFV2 | 3 | -0.308 | 0.799 | 3.46 | inactive
P2RY10 | 1 | 2.66 | 21.7 | 13.6 | inactive
P2RY10 | 2 | -0.634 | -1.5 | 3.99 | inactive
P2RY10 | 3 | -0.554 | -0.929 | 2.98 | inactive

Records listed above with an active call (2):
gene | siRNA no. | G2 robust z-score | G2 cells, % of GMNN control | raw share of cells in G2 (%) | call
RPL7P56 | 3 | 6.42 | 48.1 | 21.8 | active
RAB3IP | 1 | 6.26 | 47 | 25.1 | active

The list goes on:
gene | siRNA no. | G2 robust z-score | G2 cells, % of GMNN control | raw share of cells in G2 (%) | call
APOL4 | 1 | -0.92 | -3.5 | 3.97 | inactive
APOL4 | 2 | -0.0925 | 2.32 | 5.03 | inactive
APOL4 | 3 | 0.967 | 9.77 | 8.4 | inactive
ST3GAL5 | 1 | 0.771 | 8.39 | 8.35 | inactive
ST3GAL5 | 2 | -0.775 | -2.49 | 4.39 | inactive
ST3GAL5 | 3 | 0.673 | 7.71 | 7.47 | inactive
RPS25P4 | 1 | 0.67 | 7.68 | 6.6 | inactive
RPS25P4 | 2 | -0.75 | -2.31 | 2.6 | inactive
RPS25P4 | 3 | -0.729 | -2.16 | 3.89 | inactive
TCF19 | 1 | 0.745 | 8.21 | 8.77 | inactive
TCF19 | 2 | -0.293 | 0.908 | 4.25 | inactive
TCF19 | 3 | -1.05 | -4.42 | 1.79 | inactive
CD226 | 1 | -0.372 | 0.349 | 5.12 | inactive
CD226 | 2 | 0.504 | 6.52 | 6.83 | inactive
CD226 | 3 | -0.45 | -0.201 | 3.1 | inactive
DAG1 | 1 | 2.75 | 22.3 | 11.8 | inactive
DAG1 | 2 | -0.235 | 1.32 | 5.47 | inactive
DAG1 | 3 | 7.65 | 56.8 | 25.2 | active
GCSHP9 | 1 | -0.393 | 0.203 | 3.19 | inactive
GCSHP9 | 2 | 0.129 | 3.87 | 5.12 | inactive
GCSHP9 | 3 | -0.706 | -2 | 2.66 | inactive
ZNF8 | 1 | -1.43 | -7.12 | 1.16 | inactive
ZNF8 | 2 | -1.15 | -5.14 | 3.7 | inactive
ZNF8 | 3 | -0.375 | 0.332 | 3.48 | inactive
CDPF1 | 1 | -0.512 | -0.636 | 3.61 | inactive
CDPF1 | 2 | 0.748 | 8.23 | 5.45 | inactive
CDPF1 | 3 | -0.464 | -0.298 | 2.96 | inactive
RPS25P6 | 1 | 0.65 | 7.54 | 6.55 | inactive
RPS25P6 | 2 | 0.555 | 6.87 | 6.24 | inactive
RPS25P6 | 3 | -0.204 | 1.53 | 5.43 | inactive
LGALS12 | 1 | -0.247 | 1.23 | 4.6 | inactive
LGALS12 | 2 | -0.607 | -1.3 | 2.59 | inactive
LGALS12 | 3 | -0.544 | -0.864 | 2.65 | inactive
RAB3B | 1 | 1.87 | 16.1 | 10.5 | inactive
RAB3B | 2 | -0.184 | 1.67 | 5.32 | inactive
RAB3B | 3 | -0.306 | 0.813 | 4.42 | inactive
NPLOC4 | 1 | -0.693 | -1.91 | 3.79 | inactive
NPLOC4 | 2 | 1.03 | 10.2 | 8.38 | inactive
NPLOC4 | 3 | -0.636 | -1.51 | 2.66 | inactive
LEFTY1 | 1 | -0.121 | 2.12 | 6.61 | inactive
LEFTY1 | 2 | -0.953 | -3.74 | 5 | inactive
LEFTY1 | 3 | -0.73 | -2.17 | 3.14 | inactive
